Source: publication PMC8517208

T1: murine EpCAM in fusion with yellow fluorescent protein (YFP) at the C-terminus, in mF9 cells (murine) (UniProt Q99JW5)
T1 sequence: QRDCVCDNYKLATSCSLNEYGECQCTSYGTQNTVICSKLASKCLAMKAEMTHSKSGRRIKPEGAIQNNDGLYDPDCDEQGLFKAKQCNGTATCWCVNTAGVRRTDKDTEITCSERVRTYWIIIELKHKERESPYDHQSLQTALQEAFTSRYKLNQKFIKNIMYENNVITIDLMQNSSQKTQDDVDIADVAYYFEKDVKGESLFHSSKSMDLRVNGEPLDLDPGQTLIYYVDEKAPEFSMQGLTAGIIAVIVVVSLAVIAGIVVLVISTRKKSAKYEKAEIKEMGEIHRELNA


biological target: T1, murine EpCAM in fusion with yellow fluorescent protein (YFP) at the C-terminus, in mF9 cells (murine); assay: affinity purification with mass spectrometry; SILAC: whole cell lysates of mF9 cells stably expressing EpCAM-YFP (heavy, Lys-8/Arg-10) or YFP (light); 3 or 7 mg lysate with 30 μL GFP-Trap agarose beads, 3 hrs, 4°C; washed in 0.2% tween in PBS; LC-MS/MS; three biological repeats; hits: enriched >3-fold over YFP, p ≤ 0.05, at least 2 unique peptides

Binder | binding
CDGSH iron-sulfur domain-containing protein 2 (protein, UniProt Q9CQB5 1-135) MVLDSVARIVKVQLPAYLKQLPVPDSITGFARLTVSDWLRLLPFLGVLALLGYLAVRPFFPKKKQQKDSLINLKIQKENPKVVNEINIEDLCLTKAAYCRCWRSKTFPACDGSHNKHNELTGDNVGPLILKKKEV | binds
Calnexin (protein, UniProt P35564 21-591) HDGHDDDAIDIEDDLDDVIEEVEDSKSKSDASTPPSPKVTYKAPVPTGEVYFADSFDRGSLSGWILSKAKKDDTDDEIAKYDGKWEVDEMKETKLPGDKGLVLMSRAKHHAISAKLNKPFLFDTKPLIVQYEVNFQNGIECGGAYVKLLSKTAELSLDQFHDKTPYTIMFGPDKCGEDYKLHFIFRHKNPKTGVYEEKHAKRPDADLKTYFTDKKTHLYTLILNPDNSFEILVDQSVVNSGNLLNDMTPPVNPSREIEDPEDRKPEDWDERPKIADPDAVKPDDWDEDAPSKIPDEEATKPEGWLDDEPEYIPDPDAEKPEDWDEDMDGEWEAPQIANPKCESAPGCGVWQRPMIDNPNYKGKWKPPMIDNPNYQGIWKPRKIPNPDFFEDLEPFKMTPFSAIGLELWSMTSDIFFDNFIISGDRRVVDDWANDGWGLKKAADGAAEPGVVLQMLEAAEERPWLWVVYILTVALPVFLVILFCCSGKKQSNAMEYKKTDAPQPDVKDEEGKEEEKNKRDEEEEEEKLEEKQKSDAEEDGVTGSQDEEDSKPKAEEDEILNRSPRNRKPRRE | binds
Embryonic Ras (protein, UniProt Q7TN89 1-227) MALPTKSSILDLSSGTPCTRSPEESHEAWAQCKDAGRQLPEYKAVVVGASGVGKSALTIQMTHQCFVKDHDPTIQDSYWKEVARDNGGYILNVLDTSGQDIHRALRDQCLASGDGVLGVFALDDPSSLDQLQQIWSTWTPHHKQPLVLVGNKCDLVTTAGDAHAAAALLAHKLGAPLVKTSAKTRQGVEEAFALLVHEIQRAQEAVAESSKKTRHQKAVCSCGCSVA | binds
Ras-related protein Rab-5a (protein, UniProt Q9CQD1 1-215) MANRGATRPNGPNTGNKICQFKLVLLGESAVGKSSLVLRFVKGQFHEFQESTIGAAFLTQTVCLDDTTVKFEIWDTAGQERYHSLAPMYYRGAQAAIVVYDITNEESFARAKNWVKELQRQASPNIVIALSGNKADLANKRAVDFQEAQSYADDNSLLFMETSAKTSMNVNEIFMAIAKKLPKNEPQNPGANSARGRGVDLTEPAQPARSQCCSN | binds
Exportin-5 (protein, UniProt Q924C1-1 1-1204) MEMEQVNALCEELVKAVTVMMDPSSTQRYRLEALKFCEEFKEKCPICVPCGLKLAEKTQIAIVRHFGLQILEHVVKFRWNSMSRLEKVYLKNSVMELIANGTLRILEEENHIKDVLSRIVVEMIKREWPQHWPDMLMELDTLFRQGETQRELVMFILLRLAEDVVTFQTLPTQRRRDIQQTLTQNMERILNFLLNTLQENVNKYQQMKTDSSQEAEAQANCRVSVAALNTLAGYIDWVSLNHITAENCKLVETLCLLLNEQELQLGAAECLLIAVSRKGKLEDRKRLMILFGDVAMHYILSAAQTADGGGLVEKHYLFLKRLCQVLCALGNLLCALLALDANIQTPINFGMYLESFLAFTTHPSQFLRSSTHMTWGALFRHEVLSRDPALLAVIPKYLRASMTNLVKMGFPSKTDSPSCEYSRFDFDSDEDFNAFFNSSRAQHGEVVRCVCRLDPKTSFQMAAEWLKYQLSASIDTGPVNSCSTAGTGEGGFCSIFSPSYVQWEAMTFFLESVINQMFRTLDKEELPVSDGIELLQLVLNFEIKDPLVLSCVLTNVSALFPFVTYKPAFLPQVFSKLFSFVTFESVGESKAPRTRAVRNVRRHACSSINKMCRDYPDLVLPNFDMLYSHVKQLLSNELLLTQMEKCALMEALVLVSNQFKDYERQKLFLEELMAPVVNIWLSEEMCRALSDIDSFIAYVGADLKSCDPAVEDPCGLNRARMSFCVYSILGVMRRTSWPSDLEEAKAGGFVVGYTPSGNPIFRNPCTEQILRLLDNLLALVRTHNTLYTPEMLTKMAEPFTKALDIVESEKTAILGLPQPLLEFNDHPVYRTTLERMQRFFGILYENCYHILGKAGPSMQQDFYTVEDLASQLLGSAFVNLNNIPDFRLRSMLRVFVKPLVLFCPSEHYETLISPILGPLFTYLHMRLSQKWHVINQRSILCGEDEIAEDNPESQEMLEEQLVRMLTREAMDLIMACCVSKKTADHTAAPTADGDDEEMMATEVAPSSVVELTDLGKCLMKHEDVCTALLITAFNSLTWKDTLSCQRATTQLCWPLLKQVMSGTLLADAVTWLFTSVLKGLQMHGQHDGCMASLVHLAFQIYEALRPRYLEIRAVMEQIPEINKESLDQFDCKLLNPSLQKAADKRRKDHFKRLIAGCIGKPLGEQFRKEVHIKNLPWLFKKPKPMLETEVLDSEEGGLATIFEP | binds
Catenin delta-1 (protein, UniProt P30999 1-938) MDDSEVESTASILASVKEQEAQFEKLTRALEEERRHVSAQLERVRVSPQDANSLMANGTLTRRHQNGRFVGDADLERQKFSDLKLNGPQDHNHLLYSTIPRMQEPGQIVETYTEEDPEGAMSVVSVETTDDGTTRRTETTVKKVVKTMTTRTVQPVPMGPDGLPVDASAVSNNYIQTLGRDFRKNGNGGPGPYVGQAGTATLPRNFHYPPDGYGRHYEDGYPGGSDNYGSLSRVTRIEERYRPSMEGYRAPSRQDVYGPQPQVRVGGSSVDLHRFHPEPYGLEDDQRSMGYDDLDYGMMSDYGTARRTGTPSDPRRRLRSYEDMIGEEVPPDQYYWAPLAQHERGSLASLDSLRKGMPPPSNWRQPELPEVIAMLGFRLDAVKSNAAAYLQHLCYRNDKVKTDVRKLKGIPILVGLLDHPKKEVHLGACGALKNISFGRDQDNKIAIKNCDGVPALVRLLRKARDMDLTEVITGTLWNLSSHDSIKMEIVDHALHALTDEVIIPHSGWEREPNEDCKPRHIEWESVLTNTAGCLRNVSSERSEARRKLRECDGLVDALIFIVQAEIGQKDSDSKLVENCVCLLRNLSYQVHREIPQAERYQEALPTVANSTGPHAASCFGAKKGKDEWFSRGKKPTEDPANDTVDFPKRTSPARGYELLFQPEVVRIYISLLKESKTPAILEASAGAIQNLCAGRWTYGRYIRSALRQEKALSAIAELLTSEHERVVKAASGALRNLAVDARNKELIGKHAIPNLVKNLPGGQQNSSWNFSEDTVVSILNTINEVIAENLEAAKKLRETQGIEKLVLINKSGNRSEKEVRAAALVLQTIWGYKELRKPLEKEGWKKSDFQVNLNNASRSQSSHSYDDSTLPLIDRNQKSDKKPDREEIPMSNMGSNTKSLDNNYSTLNERGDHNRTLDRSGDLGDMEPLKGAPLMQKI | binds
ATP synthase, H+ transporting, mitochondrial F1 complex, delta subunit, isoform CRA_c (protein, UniProt Q9D3D9 23-168) AEAAAAPAPAAGPGQMSFTFASPTQVFFDSANVKQVDVPTLTGAFGILASHVPTLQVLRPGLVVVHTEDGTTTKYFVSSGSVTVNADSSVQLLAEEAVTLDMLDLGAARANLEKAQSELSGAADEAARAEIQIRIEANEALVKALE | binds

Results, then the binder that gave them:

binding | Binder
binds | Solute carrier family 2, facilitated glucose transporter member 1 (protein, UniProt P17809 1-492) MDPSSKKVTGRLMLAVGGAVLGSLQFGYNTGVINAPQKVIEEFYNQTWNHRYGEPIPSTTLTTLWSLSVAIFSVGGMIGSFSVGLFVNRFGRRNSMLMMNLLAFVAAVLMGFSKLGKSFEMLILGRFIIGVYCGLTTGFVPMYVGEVSPTALRGALGTLHQLGIVVGILIAQVFGLDSIMGNADLWPLLLSVIFIPALLQCILLPFCPESPRFLLINRNEENRAKSVLKKLRGTADVTRDLQEMKEEGRQMMREKKVTILELFRSPAYRQPILIAVVLQLSQQLSGINAVFYYSTSIFEKAGVQQPVYATIGSGIVNTAFTVVSLFVVERAGRRTLHLIGLAGMAGCAVLMTIALALLERLPWMSYLSIVAIFGFVAFFEVGPGPIPWFIVAELFSQGPRPAAIAVAGFSNWTSNFIVGMCFQYVEQLCGPYVFIIFTVLLVLFFIFTYFKVPETKGRTFDEIASGFRQGGASQSDKTPEELFHPLGADSQV
binds | Ras-related protein Ral-a (protein, UniProt P63321 1-206) MAANKPKGQNSLALHKVIMVGSGGVGKSALTLQFMYDEFVEDYEPTKADSYRKKVVLDGEEVQIDILDTAGQEDYAAIRDNYFRSGEGFLCVFSITEMESFAATADFREQILRVKEDENVPFLLVGNKSDLEDKRQVSVEEAKNRADQWNVNYVETSAKTRANVDKVFFDLMREIRARKMEDSKEKNGKKKRKSLAKRIRERCCIL
binds | Thioredoxin-related transmembrane protein 1 (protein, UniProt Q8VBT0 27-278) RRNNVRVLTDENWTSLLEGEWMIEFYAPWCPACQNLQPEWESFAEWGEDLEVKVAKVDVTEQTGLSGRFIITALPSIYHCKDGEFRRYVGPRTKKDFINFVSDKEWKNIEPISSWFGPSSVLMTMMSALFQLSVYIRTSHSYFVHDLGIPAWGSYLVFAFATVLSGLLLGLCMIFVADCLCPSKRRKPQQQYAKKTSPEFSQPLKKVEEEQEADEEDVSEEEAEDREGASKATSQSSIRQRCVGLPSATDTS
binds | Solute carrier family 2, facilitated glucose transporter member 3 (protein, UniProt P32037 1-493) MGTTKVTPSLVFAVTVATIGSFQFGYNTGVINAPETILKDFLNYTLEERLEDLPSEGLLTALWSLCVAIFSVGGMIGSFSVGLFVNRFGRRNSMLLVNLLAIIAGCLMGFAKIAESVEMLILGRLLIGIFCGLCTGFVPMYIGEVSPTALRGAFGTLNQLGIVVGILVAQIFGLDFILGSEELWPGLLGLTIIPAILQSAALPFCPESPRFLLINKKEEDQATEILQRLWGTSDVVQEIQEMKDESVRMSQEKQVTVLELFRSPNYVQPLLISIVLQLSQQLSGINAVFYYSTGIFKDAGVQEPIYATIGAGVVNTIFTVVSLFLVERAGRRTLHMIGLGGMAVCSVFMTISLLLKDDYEAMSFVCIVAILIYVAFFEIGPGPIPWFIVAELFSQGPRPAAIAVAGCCNWTSNFLVGMLFPSAAAYLGAYVFIIFAAFLIFFLIFTFFKVPETKGRTFEDIARAFEGQAHSGKGPAGVELNSMQPVKETPGNA
binds | Ras-related protein Rab-5c (protein, UniProt P35278 1-216) MAGRGGAARPNGPAAGNKICQFKLVLLGESAVGKSSLVLRFVKGQFHEYQESTIGAAFLTQTVCLDDTTVKFEIWDTAGQERYHSLAPMYYRGAQAAIVVYDITNTDTFARAKNWVKELQRQASPNIVIALAGNKADLASKRAVEFQEAQAYADDNSLLFMETSAKTAMNVNEIFMAIAKKLPKNEPQNAAGAPGRTRGVDLQESNPASRSQCCSN

These are yes or no findings as the source states them, for the method shown. In cells and extracts the contact can be indirect. A yes stands for co-enrichment or nearness to the bait. Other partners may have been found. Tags and fused reporters may be left off the sequences shown.
